{
  "source": "patent US20110020786A1",
  "about": "“PEPTIDE DENDRIMERS: AFFINITY REAGENTS FOR BINDING NOROVIRUSES” (BAYLOR COLLEGE OF MEDICINE, priority 2007, published 2011)",
  "binders": {"B1": {"name": "2 (peptide)", "displayed 12-mer peptide fused to the minor coat protein pIII of M13 phage": "AQHTLKKWPLLV"}, "B2": {"name": "5 (peptide)", "displayed 12-mer peptide fused to the minor coat protein pIII of M13 phage": "LGTKALSYSISI"}, "B3": {"name": "1 (peptide)", "displayed 12-mer peptide fused to the minor coat protein pIII of M13 phage": "SVSVGMKPSPRP"}},
  "note": "These are yes or no findings as the source states them, for the method shown. Binding can be weak; no strength is given.",
  "data": [
    {"molecular_target": "β-amylase", "experiment": "phage ELISA: target coated at 10 µg/mL, amplified phage added, detection with anti-M13-HRP and ABTS at 405 nm", "values": [
      {"binder": "B1", "binding": "binds"},
      {"binder": "B2", "binding": "binds"},
      {"binder": "B3", "binding": "binds"}
    ]},
    {"molecular_target": "alcohol dehydrogenase", "experiment": "phage ELISA: target coated at 10 µg/mL, amplified phage added, detection with anti-M13-HRP and ABTS at 405 nm", "values": [
      {"binder": "B1", "binding": "binds"},
      {"binder": "B2", "binding": "binds"},
      {"binder": "B3", "binding": "binds"}
    ]},
    {"molecular_target": "carbonic anhydrase", "experiment": "phage ELISA: target coated at 10 µg/mL, amplified phage added, detection with anti-M13-HRP and ABTS at 405 nm", "values": [
      {"binder": "B1", "binding": "binds"},
      {"binder": "B2", "binding": "binds"},
      {"binder": "B3", "binding": "binds"}
    ]}
  ]
}
